Our source for the binding values is doi:10.1101/2020.11.17.386672.

Chains of the proteins cited; added tags and fusions are not shown.
UniProt O22467: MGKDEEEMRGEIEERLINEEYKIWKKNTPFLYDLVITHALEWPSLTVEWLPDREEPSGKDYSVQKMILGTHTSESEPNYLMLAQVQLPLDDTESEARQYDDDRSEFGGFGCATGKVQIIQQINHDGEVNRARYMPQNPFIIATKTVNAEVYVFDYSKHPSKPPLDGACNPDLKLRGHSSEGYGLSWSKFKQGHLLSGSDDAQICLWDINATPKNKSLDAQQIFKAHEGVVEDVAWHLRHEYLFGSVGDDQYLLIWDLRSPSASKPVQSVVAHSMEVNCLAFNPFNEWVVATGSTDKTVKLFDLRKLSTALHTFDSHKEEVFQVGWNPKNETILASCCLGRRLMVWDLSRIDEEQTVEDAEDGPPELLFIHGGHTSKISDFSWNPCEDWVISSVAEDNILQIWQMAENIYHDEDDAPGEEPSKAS

These are yes or no findings as the source states them, for the method shown. In cells and extracts the contact can be indirect. Here binding means that the protein was enriched with, or labelled near, the bait; the list need not be complete.

The target in the assay is T1, HDA15 (endogenous) (Arabidopsis thaliana (endogenous in Col-0)) (UniProt Q8GXJ1).
T1 sequence: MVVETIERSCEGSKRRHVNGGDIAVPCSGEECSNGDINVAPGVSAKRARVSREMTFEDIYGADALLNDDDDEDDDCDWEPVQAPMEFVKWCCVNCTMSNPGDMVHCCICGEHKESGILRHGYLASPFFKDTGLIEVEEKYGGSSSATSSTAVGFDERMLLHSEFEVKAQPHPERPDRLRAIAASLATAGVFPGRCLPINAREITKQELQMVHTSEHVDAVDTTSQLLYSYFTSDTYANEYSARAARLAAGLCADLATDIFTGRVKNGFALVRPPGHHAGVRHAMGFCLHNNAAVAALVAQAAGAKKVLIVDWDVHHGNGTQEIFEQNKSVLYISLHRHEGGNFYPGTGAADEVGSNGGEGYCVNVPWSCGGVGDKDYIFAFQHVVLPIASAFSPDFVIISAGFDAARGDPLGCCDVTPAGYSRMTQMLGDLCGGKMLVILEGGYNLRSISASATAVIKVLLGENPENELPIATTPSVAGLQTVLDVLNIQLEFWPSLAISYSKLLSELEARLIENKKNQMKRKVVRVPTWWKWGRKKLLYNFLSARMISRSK
The assay can be described thus: affinity purification with mass spectrometry.

Turning to “MULTICOPY SUPRESSOR OF IRA1 (MSI1) (from UniProt O22467 1-424)”, the binding entry was “binds”.

With MAC5A, the binding result was “binds”.
